These are yes or no findings as the source states them, for the method shown. Binding seen in cells or lysates may run through a third protein. Some entries that bind do so weakly or less than the wild type. For some of these results: Where a sequence is shown, tags or fusion partners need not be part of it. Blank lines part the entries; values can stand above or below the molecule they belong to.
How the values were obtained:
[1] = biological target: HSP21 (mature) with the YFP fragments fused to its N-terminus (UniProt P31170); assay: split reporter; BiFC, 174/175 YFP split, 35S promoter, both chloroplast-targeted fusions from a single multigenic T-DNA with a reference FP (nucleo-cytosolic CFP, CTP-CFP or OEP7-mTRQ); N. benthamiana mesophyll cells, 3 days after agroinfiltration
[2] = biological target: HSP21 (mature) fused C-terminally to 3FLAG_nYFP or cYFP_3HA (UniProt P31170); assay: as above
[3] = biological target: HSP21 (mature) fused C-terminally to 3FLAG_nYFP or cYFP_3HA (UniProt P31170); assay: split reporter; BiFC, 174/175 YFP split, same constructions; Arabidopsis (GVG-AvrPto, dexamethasone 24 h before inoculation) epidermal cells
[4] = biological target: HSP21 (mature) fused to the fragments of the 174/175 YFP split without epitope tags (UniProt P31170); assay: split reporter; BiFC, 174/175 YFP split, 35S promoter, both chloroplast-targeted fusions from a single multigenic T-DNA with a reference FP (nucleo-cytosolic CFP, CTP-CFP or OEP7-mTRQ); N. benthamiana mesophyll cells, 3 days after agroinfiltration
[5] = biological target: HSP21 (mature) fused to the fragments of the 210/211 mVENUS split (UniProt P31170); assay: split reporter; BiFC, 210/211 mVENUS split, 35S promoter, chloroplast-targeted fusions from a single T-DNA; N. benthamiana mesophyll cells
[6] = biological target: HSP21 (mature) fused to the fragments of the 210/211 mVENUS split (UniProt P31170); assay: split reporter; BiFC, 210/211 mVENUS split, Arabidopsis UBQ10 promoter, chloroplast-targeted fusions from a single T-DNA; N. benthamiana mesophyll cells
[7] = biological target: HSP21 (mature) fused C-terminally to 3FLAG_nYFP or cYFP_3HA (UniProt P31170); assay: split reporter; BiFC, 174/175 YFP split, 35S promoter, both chloroplast-targeted fusions from a single multigenic T-DNA with a reference FP (nucleo-cytosolic CFP, CTP-CFP or OEP7-mTRQ); N. benthamiana mesophyll cells, 3 days after agroinfiltration; remark: listed apart in the source

The chains behind the UniProt entries cited, without tags or fusion partners. Residues count along the entry.
UniProt P31170, residues 44-227: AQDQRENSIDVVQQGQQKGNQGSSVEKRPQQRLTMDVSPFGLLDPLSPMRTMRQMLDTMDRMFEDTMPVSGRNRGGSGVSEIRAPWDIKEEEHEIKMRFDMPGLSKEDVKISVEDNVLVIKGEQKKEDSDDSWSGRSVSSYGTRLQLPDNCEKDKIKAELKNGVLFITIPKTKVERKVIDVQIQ

Molecule: HSP21 (mature) fused C-terminally to 3FLAG_nYFP or cYFP_3HA (from UniProt P31170 44-227)
binding [2]: binds
binding [3]: binds

B1: PTAC5 fused to cYFP_3HA (protein, UniProt A1A6M1 41-387)
chain: CFSTQNPDREEVRWLREEQRWIREEQRWIREEQRWIRERESLLQEISDLQLRIQSLESRNSQLGNSIPDTISNIAALLQVLKEKNRISESGLSATPMVLESTREQIVEEVEEEEKRVIIAEEKVRVSEPVKKIKRRILKVGSEGDDVQALQEALLKLGFYSGEEDMEFSSFSSGTASAVKTWQASLGVREDGVMTAELLQRLFMDEDVETDKDEASTMKKEEAGNGAVFTSVTQVPEKKQSIVKDQSDREVDVTQNRVFLLGENRWEDPSRLIGRNKPVDRSESTNTKTRCITCRGEGRLMCLECDGTGEPNIEPQFMEWVGEDTKCPYCEGLGYTVCDVCDGKKNL
binding [7]: binds

Results, then the molecule that gave them:

binding [1]: binds
Molecule: HSP21 (mature) with the YFP fragments fused to its N-terminus (from UniProt P31170 44-227)

binding [4]: binds
Molecule: HSP21 (mature) fused to the fragments of the 174/175 YFP split without epitope tags (from UniProt P31170 44-227)

binding [5]: binds
binding [6]: binds
Molecule: HSP21 (mature) fused to the fragments of the 210/211 mVENUS split (from UniProt P31170 44-227)

From PMC9134606
